The test concerns the target GLP-1R-Sm-BiT (UniProt P43220). Briefly: split reporter; NanoBiT between β-arrestin-2-Lg-BiT and GLP-1R-Sm-BiT in live Min6B1 cells, luminescence for 30 min after 100 nM Exendin-4; cells with siSc or siGRK2 (48 h), or with Compound 101 (30 μM).

By UniProt entry, the sequences of proteins in these tests, tags left out. Residues count along the entry.
UniProt P43220, residues 24-463: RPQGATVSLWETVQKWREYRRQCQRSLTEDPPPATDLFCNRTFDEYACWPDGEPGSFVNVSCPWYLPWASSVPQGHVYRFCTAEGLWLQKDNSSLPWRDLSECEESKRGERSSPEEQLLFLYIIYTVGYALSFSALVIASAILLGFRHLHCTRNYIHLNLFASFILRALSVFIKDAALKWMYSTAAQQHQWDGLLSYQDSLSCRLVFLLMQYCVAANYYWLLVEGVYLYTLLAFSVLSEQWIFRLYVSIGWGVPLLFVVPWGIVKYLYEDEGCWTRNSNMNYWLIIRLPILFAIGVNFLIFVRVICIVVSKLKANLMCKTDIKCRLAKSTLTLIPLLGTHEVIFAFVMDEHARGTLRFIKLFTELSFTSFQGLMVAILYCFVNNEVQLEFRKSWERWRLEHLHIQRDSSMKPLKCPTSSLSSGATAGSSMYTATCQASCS
UniProt P32121: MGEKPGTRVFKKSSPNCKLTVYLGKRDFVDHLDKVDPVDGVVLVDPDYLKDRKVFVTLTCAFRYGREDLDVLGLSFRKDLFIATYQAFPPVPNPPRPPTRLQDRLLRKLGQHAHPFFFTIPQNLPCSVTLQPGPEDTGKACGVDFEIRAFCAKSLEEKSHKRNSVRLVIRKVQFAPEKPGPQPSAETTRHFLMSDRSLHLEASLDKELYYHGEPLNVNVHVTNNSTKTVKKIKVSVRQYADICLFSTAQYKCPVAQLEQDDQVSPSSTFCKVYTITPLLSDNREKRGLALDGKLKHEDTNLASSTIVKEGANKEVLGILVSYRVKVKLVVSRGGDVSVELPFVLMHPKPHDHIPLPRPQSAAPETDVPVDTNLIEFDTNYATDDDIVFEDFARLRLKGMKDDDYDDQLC

No constants are given. Whether binding was seen depends on the method and setting. Binding seen in cells or lysates may run through a third protein. Some binding calls cover weakened binding; strength is not graded here.

For “β-arrestin-2-Lg-BiT (from UniProt P32121 1-409)”, the binding entry was “binds”.
